# Experimental data as given in the supplement of paper PMC8728848.
# The other results are listed elsewhere or left out.
# B1: AFL6 (Aspergillus fumigatus), Q4WKJ1 (protein)
# chain: MSFHLTAEDIRIEDGHRLVARLRNADGDLQDASIDLNTCLGNDNGHFQWDGVDFSHSAQDVHFAIEGGGQVPVLRAQLANQDGEFQDADVNLSERIENINGEFVFH
# Columns and labels:
# Experiment in all cases: glycan array binding signal (z-score within array); higher = stronger binding
# Conditions in all cases: glycan notation: IUPAC condensed, linker removed
# [1] = molecular target: Gal(b1-3)GlcNAc(b1-2)Man(a1-3)[Gal(b1-3)GlcNAc(b1-2)Man(a1-6)]Man(b1-4)GlcNAc(b1-4)GlcNAc
# Method in brief: (§1)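 The binding signal is a Z-score computed within each array and averaged over linkers. Arrays of the same protein sequence at different concentrations or buffers were also averaged together. Data originate from 3228 arrays in the Consortium for Functional Glycomics database, kept only where the protein sequence was available.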
# [2] = molecular target: Gal(b1-3)GlcNAc(b1-2)Man(a1-3)[Gal(b1-3)GlcNAc(b1-2)Man(a1-6)]Man(b1-4)GlcNAc(b1-4)[Fuc(a1-6)]GlcNAc
# Method in brief: as §1
# [3] = molecular target: Gal(b1-3)GlcNAc(b1-2)Man(a1-3)[GlcNAc(b1-4)][Gal(b1-3)GlcNAc(b1-2)Man(a1-6)]Man(b1-4)GlcNAc(b1-4)GlcNAc
# Method in brief: as §1
# [4] = molecular target: Gal(b1-3)GlcNAc(b1-2)[Gal(b1-3)GlcNAc(b1-6)]Man(a1-6)[Gal(b1-3)GlcNAc(b1-2)Man(a1-3)]Man(b1-4)GlcNAc(b1-4)GlcNAc
# Method in brief: as §1
# [5] = molecular target: Gal(b1-3)GlcNAc(b1-3)Gal(b1-3)GlcNAc
# Method in brief: as §1
# [6] = molecular target: Gal(b1-3)GlcNAc(b1-3)Gal(b1-4)Glc
# Method in brief: as §1
# [7] = molecular target: Gal(b1-3)GlcNAc(b1-3)Gal(b1-4)GlcNAc
# Method in brief: as §1
# [8] = molecular target: Gal(b1-3)GlcNAc(b1-3)Gal(b1-4)GlcNAc(b1-2)Man(a1-3)[Gal(b1-3)GlcNAc(b1-3)Gal(b1-4)GlcNAc(b1-2)Man(a1-6)]Man(b1-4)GlcNAc(b1-4)GlcNAc
# Method in brief: as §1
# [9] = molecular target: Gal(b1-3)GlcNAc(b1-3)Gal(b1-4)GlcNAc(b1-2)[Gal(b1-3)GlcNAc(b1-3)Gal(b1-4)GlcNAc(b1-6)]Man(a1-6)[Gal(b1-3)GlcNAc(b1-3)Gal(b1-4)GlcNAc(b1-2)Man(a1-3)]Man(b1-4)GlcNAc(b1-4)[Fuc(a1-6)]GlcNAc
# Method in brief: as §1
# [10] = molecular target: Gal(b1-3)GlcNAc(b1-3)Gal(b1-4)GlcNAc(b1-3)Gal(b1-4)GlcNAc(b1-2)[Gal(b1-3)GlcNAc(b1-3)Gal(b1-4)GlcNAc(b1-3)Gal(b1-4)GlcNAc(b1-6)]Man(a1-6)[Gal(b1-3)GlcNAc(b1-3)Gal(b1-4)GlcNAc(b1-3)Gal(b1-4)GlcNAc(b1-2)Man(a1-3)]Man(b1-4)GlcNAc(b1-4)[Fuc(a1-6)]GlcNAc
# Method in brief: as §1
# [11] = molecular target: Gal(b1-3)GlcNAc(b1-3)Gal(b1-4)GlcNAc(b1-6)[Gal(b1-3)GlcNAc(b1-3)]Gal(b1-4)Glc
# Method in brief: as §1
# [12] = molecular target: Gal(b1-3)GlcNAc(b1-3)Gal(b1-4)[Fuc(a1-3)]GlcNAc
# Method in brief: as §1
# [13] = molecular target: Gal(b1-3)GlcNAc(b1-3)Gal(b1-4)[Fuc(a1-3)]GlcNAc(b1-6)[Gal(b1-3)GlcNAc(b1-3)]Gal(b1-4)Glc
# Method in brief: as §1
# [14] = molecular target: Gal(b1-3)GlcNAc(b1-3)GalNAc
# Method in brief: as §1
# [15] = molecular target: Gal(b1-3)GlcNAc(b1-6)Gal(b1-4)GlcNAc
# Method in brief: as §1
# [16] = molecular target: Gal(b1-3)GlcNAc(b1-6)GalNAc
# Method in brief: as §1
# [17] = molecular target: Gal(b1-3)GlcNAc(b1-6)[Gal(b1-3)]GalNAc
# Method in brief: as §1
# Gal(b1-3)GlcNAc6S = molecular target: Gal(b1-3)GlcNAc6S
# Method in brief: as §1
# [18] = molecular target: Gal(b1-3)[Fuc(a1-4)]GlcNAc
# Method in brief: as §1
# [19] = molecular target: Gal(b1-3)[Fuc(a1-4)]GlcNAc(b1-2)Man
# Method in brief: as §1
# [20] = molecular target: Gal(b1-3)[Fuc(a1-4)]GlcNAc(b1-2)Man(a1-3)[Gal(b1-3)[Fuc(a1-4)]GlcNAc(b1-2)Man(a1-6)]Man(b1-4)GlcNAc(b1-4)[Fuc(a1-6)]GlcNAc
# Method in brief: as §1
# [21] = molecular target: Gal(b1-3)[Fuc(a1-4)]GlcNAc(b1-3)Gal(b1-3)[Fuc(a1-4)]GlcNAc
# Method in brief: as §1
# [22] = molecular target: Gal(b1-3)[Fuc(a1-4)]GlcNAc(b1-3)Gal(b1-4)[Fuc(a1-3)]GlcNAc
# Method in brief: as §1
# [23] = molecular target: Gal(b1-3)[Fuc(a1-4)]GlcNAc(b1-6)GalNAc
# Method in brief: as §1
# [24] = molecular target: Gal(b1-3)[GlcNAc(b1-6)]GalNAc
# Method in brief: as §1
# [25] = molecular target: Gal(b1-3)[Neu5Ac(a2-6)]GalNAc
# Method in brief: as §1
# [26] = molecular target: Gal(b1-3)[Neu5Ac(a2-6)]GlcNAc(b1-4)Gal(b1-4)Glc
# Method in brief: as §1
# [27] = molecular target: Gal(b1-3)[Neu5Ac(b2-6)]GalNAc
# Method in brief: as §1
# Gal(b1-4)Gal = molecular target: Gal(b1-4)Gal
# Method in brief: as §1
# [28] = molecular target: Gal(b1-4)GalNAc(a1-3)[Fuc(a1-2)]Gal(b1-4)GlcNAc
# Method in brief: as §1
# [29] = molecular target: Gal(b1-4)GalNAc(b1-3)[Fuc(a1-2)]Gal(b1-4)GlcNAc
# Method in brief: as §1
# Gal(b1-4)Glc = molecular target: Gal(b1-4)Glc
# Method in brief: as §1
# Gal(b1-4)Glc6S = molecular target: Gal(b1-4)Glc6S
# Method in brief: as §1
# Gal(b1-4)GlcNAc = molecular target: Gal(b1-4)GlcNAc
# Method in brief: as §1
# [30] = molecular target: Gal(b1-4)GlcNAc(a1-6)Gal(b1-4)GlcNAc
# Method in brief: as §1
# Gal(b1-4)GlcNAc(b1-2)Man = molecular target: Gal(b1-4)GlcNAc(b1-2)Man
# Method in brief: as §1
# [31] = molecular target: Gal(b1-4)GlcNAc(b1-2)Man(a1-3)Man(b1-4)GlcNAc(b1-4)GlcNAc
# Method in brief: as §1
# [32] = molecular target: Gal(b1-4)GlcNAc(b1-2)Man(a1-3)[Gal(b1-4)GlcNAc(b1-2)Man(a1-6)]Man(b1-4)GlcNAc(b1-4)GlcNAc
# Method in brief: as §1
# [33] = molecular target: Gal(b1-4)GlcNAc(b1-2)Man(a1-3)[Gal(b1-4)GlcNAc(b1-2)Man(a1-6)]Man(b1-4)GlcNAc(b1-4)[Fuc(a1-6)]GlcNAc
# Method in brief: as §1
# [34] = molecular target: Gal(b1-4)GlcNAc(b1-2)Man(a1-3)[Gal(b1-4)GlcNAc(b1-2)Man(a1-6)][Gal(b1-4)GlcNAc(b1-4)]Man(b1-4)GlcNAc(b1-4)[Fuc(a1-6)]GlcNAc
# Method in brief: as §1
# [35] = molecular target: Gal(b1-4)GlcNAc(b1-2)Man(a1-3)[Gal(b1-4)GlcNAc(b1-2)Man(a1-6)][GlcNAc(b1-4)]Man(b1-4)GlcNAc(b1-4)[Fuc(a1-6)]GlcNAc
# Method in brief: as §1
# [36] = molecular target: Gal(b1-4)GlcNAc(b1-2)Man(a1-3)[GlcNAc(b1-2)Man(a1-6)]Man(b1-4)GlcNAc(b1-4)GlcNAc
# Method in brief: as §1
# [37] = molecular target: Gal(b1-4)GlcNAc(b1-2)Man(a1-3)[GlcNAc(b1-4)][Gal(b1-4)GlcNAc(b1-2)Man(a1-6)]Man(b1-4)GlcNAc(b1-4)GlcNAc
# Method in brief: as §1
# [38] = molecular target: Gal(b1-4)GlcNAc(b1-2)Man(a1-3)[Man(a1-6)]Man(b1-4)GlcNAc(b1-4)GlcNAc
# Method in brief: as §1
# [39] = molecular target: Gal(b1-4)GlcNAc(b1-2)Man(a1-6)Man(b1-4)GlcNAc(b1-4)GlcNAc
# Method in brief: as §1
binder,measurement,setting,value
B1,glycan array binding signal (z-score),[1],0.432
same,glycan array binding signal (z-score),[2],-0.051
same,glycan array binding signal (z-score),[3],-0.123
same,glycan array binding signal (z-score),[4],0.095
same,glycan array binding signal (z-score),[5],-0.177
same,glycan array binding signal (z-score),[6],-0.333
same,glycan array binding signal (z-score),[7],-0.706
same,glycan array binding signal (z-score),[8],0.605
same,glycan array binding signal (z-score),[9],1.91
same,glycan array binding signal (z-score),[10],1.46
same,glycan array binding signal (z-score),[11],-0.083
same,glycan array binding signal (z-score),[12],-0.467
same,glycan array binding signal (z-score),[13],-0.586
same,glycan array binding signal (z-score),[14],-0.714
same,glycan array binding signal (z-score),[15],-0.01
same,glycan array binding signal (z-score),[16],-0.249
same,glycan array binding signal (z-score),[17],-0.123
same,glycan array binding signal (z-score),Gal(b1-3)GlcNAc6S,-0.189
same,glycan array binding signal (z-score),[18],-0.038
same,glycan array binding signal (z-score),[19],0.317
same,glycan array binding signal (z-score),[20],-0.016
same,glycan array binding signal (z-score),[21],-0.509
same,glycan array binding signal (z-score),[22],-0.569
same,glycan array binding signal (z-score),[23],0.433
same,glycan array binding signal (z-score),[24],-0.173
same,glycan array binding signal (z-score),[25],-0.262
same,glycan array binding signal (z-score),[26],0.155
same,glycan array binding signal (z-score),[27],-0.036
same,glycan array binding signal (z-score),Gal(b1-4)Gal,-0.275
same,glycan array binding signal (z-score),[28],-0.572
same,glycan array binding signal (z-score),[29],-0.608
same,glycan array binding signal (z-score),Gal(b1-4)Glc,-0.22
same,glycan array binding signal (z-score),Gal(b1-4)Glc6S,-0.129
same,glycan array binding signal (z-score),Gal(b1-4)GlcNAc,-0.239
same,glycan array binding signal (z-score),[30],-0.548
same,glycan array binding signal (z-score),Gal(b1-4)GlcNAc(b1-2)Man,-0.533
same,glycan array binding signal (z-score),[31],0.116
same,glycan array binding signal (z-score),[32],0.231
same,glycan array binding signal (z-score),[33],0.132
same,glycan array binding signal (z-score),[34],-0.617
same,glycan array binding signal (z-score),[35],-0.574
same,glycan array binding signal (z-score),[36],0.078
same,glycan array binding signal (z-score),[37],-0.216
same,glycan array binding signal (z-score),[38],0.003
same,glycan array binding signal (z-score),[39],0.409

# Reformatted: entries from further up.
binder | measurement | setting | value
B1 | glycan array binding signal (z-score) | [19] | 0.317
same | glycan array binding signal (z-score) | [20] | -0.016
same | glycan array binding signal (z-score) | [21] | -0.509
